In US20030040613:
Construct, isoform or probe ends are uncertain for at least one entry.

How the values were obtained:
[1] = test system: TFIID (TATA-box binding general transcription factor); assay: competition with a labelled probe; conditions: EMSA competition on ice; competes at 3.5 and 0.35 pM, not at 0.035 and 0.0035 pM; data not shown; folded or branched DNA
[2] = test system: TFIID (TATA-box binding general transcription factor); assay: EMSA; conditions: equimolar TFIID, on ice; shifted band seen at low competitor; label: 32P

ATATGCTCTGCTTTTGCAGAGCATATAAGG / TGAGGTAGGATTTTTCCTACCTCACCTT [consensus dumbbell]
binding result [1]: binds

GCAGAGCATATAAGGTGAGGTAGGA (double strand) [TFIID consensus duplex]
binding result [2]: binds
